Source: paper PMC9677118
These are yes or no findings as the source states them, for the method shown. Binding calls can cover weak binding; strength is not graded here.

By UniProt entry, the sequences of proteins in these tests, tags left out. Where a name states a change or a piece, a line headed by the entry shows the natural chain unless it says otherwise.
UniProt P48740: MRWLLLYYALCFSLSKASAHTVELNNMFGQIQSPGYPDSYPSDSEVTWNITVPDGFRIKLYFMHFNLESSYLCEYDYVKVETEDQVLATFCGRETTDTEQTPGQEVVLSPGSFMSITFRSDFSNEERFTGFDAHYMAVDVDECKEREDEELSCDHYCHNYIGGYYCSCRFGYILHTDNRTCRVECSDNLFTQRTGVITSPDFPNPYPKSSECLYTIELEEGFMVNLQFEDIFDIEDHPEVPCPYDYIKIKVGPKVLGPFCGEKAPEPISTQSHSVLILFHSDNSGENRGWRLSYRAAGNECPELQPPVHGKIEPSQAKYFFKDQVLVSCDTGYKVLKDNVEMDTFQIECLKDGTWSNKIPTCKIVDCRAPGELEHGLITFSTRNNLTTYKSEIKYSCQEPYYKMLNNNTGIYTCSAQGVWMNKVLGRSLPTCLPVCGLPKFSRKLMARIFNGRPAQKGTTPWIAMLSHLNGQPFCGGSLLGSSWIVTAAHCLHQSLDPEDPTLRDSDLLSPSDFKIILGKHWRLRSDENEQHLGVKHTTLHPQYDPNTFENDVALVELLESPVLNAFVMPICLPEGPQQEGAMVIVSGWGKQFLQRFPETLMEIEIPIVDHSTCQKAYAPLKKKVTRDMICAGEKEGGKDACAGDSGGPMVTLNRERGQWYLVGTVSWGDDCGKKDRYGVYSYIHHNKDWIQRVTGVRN

Tests used:
[1] = molecular target: recombinantly produced activated MASP-1 (CCP1-CCP2-SP domain) (human) (UniProt P48740); assay: SDS-PAGE of the covalent complex; activated MASP-1 (CCP1-CCP2-SP) incubated in a 1:1 molar ratio with ultra-pure C1-INH for 2 h at 37°C in PBS; complex formation checked by SDS-PAGE; both purified
[2] = molecular target: recombinantly produced activated MASP-1 (CCP1-CCP2-SP domain) (human) (UniProt P48740); assay: ELISA; sandwich ELISA on purified preformed complexes in buffer (bought C1s/C1-INH complex, in-house MASP-1/C1-INH complex) used as standards; capture by a monoclonal antibody to C1s or MASP-1, detection by an HRP-labelled anti-C1-INH monoclonal antibody; both purified
[3] = molecular target: MBL-associated serine protease 1 (MASP-1) (human (endogenous in human plasma and serum)); assay: ELISA; sandwich ELISA on human citrate, heparin and EDTA plasma and on serum; wells coated with a monoclonal antibody to C1s or MASP-1, bound C1-INH detected with an HRP-labelled monoclonal antibody; serum also activated with zymosan, or on IgM- or mannan-coated wells, with or without EDTA

Measured: binding

B1: C1 esterase inhibitor (C1-INH) (protein, UniProt P05155 23-500)
chain: NPNATSSSSQDPESLQDRGEGKVATTVISKMLFVEPILEVSSLPTTNSTTNSATKITANTTDEPTTQPTTEPTTQPTIQPTQPTTQLPTDSPTQPTTGSFCPGPVTLCSDLESHSTEAVLGDALVDFSLKLYHAFSAMKKVETNMAFSPFSIASLLTQVLLGAGENTKTNLESILSYPKDFTCVHQALKGFTTKGVTSVSQIFHSPDLAIRDTFVNASRTLYSSSPRVLSNNSDANLELINTWVAKNTNNKISRLLDSLPSDTRLVLLNAIYLSAKWKTTFDPKKTRMEPFHFKNSVIKVPMMNSKKYPVAHFIDQTLKAKVGQLQLSHNLSLVILVPQNLKHRLEDMEQALSPSVFKAIMEKLEMSKFQPTLLTLPRIKVTTSQDMLSIMEKLEFFDFSYDLNLCGLTEDPDLQVSAMQHQTVLELTETGVEAAAASAISVARTLLVFEVQQPFLFVLWDQQHKFPVFMGRVYDPRA
binds: all assays above
